PubChem BioAssay AID1259285 – Sanger Institute | 2017
This is a random part of 794 reagents. Over the whole deposit, 20 (2.5%) are marked active. 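Calls rest on the drug-free arm alone and ignore synergy scores; viability ratios seem to be capped at 1.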 Not all columns of the deposit are shown. Not given: the amount of reagent, the time to read-out.

Assay: 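Search of the kinome for kinases worth combining with drugs in colon cancer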 (primary screen)
Cell system: human HCC56 colorectal cancer cells
Knock-down reagent: siRNA pool against human genes
Treatment: DMSO vehicle, or anchor drug BYL719 at 1 µM, cetuximab at 5 µg/ml, or trametinib at 10 nM
Read-out: 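Replicate-averaged viability relative to non-targeting siRNA, expressed as a robust z-score from controls, plus a synergy score for each of three anchor drugs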
Reading the numbers: viability robust z-score, no drug: higher = more viable cells, weaker knock-down effect; viability vs non-targeting pool, no drug: higher = more viable cells
Rule for the call: 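a knock-down counts as essential if its viability z-score without drug is under -3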
Meaning of the calls: active = essential without drug; inactive = no change without drug

Target gene | viability robust z-score, no drug | viability vs non-targeting pool, no drug | Call
CDK7 | -0.241 | 0.94 | inactive
DDR2 | 0.458 | 1 | inactive
IKBKG | 0.458 | 1 | inactive
TAOK2 | 0.458 | 1 | inactive
AMER1 | 0.458 | 1 | inactive
PRKAB2 | -1.37 | 0.843 | inactive
AAK1 | -0.789 | 0.893 | inactive
PIP4K2C | 0.458 | 1 | inactive
WEE1 | -6.17 | 0.43 | active
RIPK1 | 0.458 | 1 | inactive
AK2 | 0.458 | 1 | inactive
CKMT2 | 0.458 | 1 | inactive
TAOK1 | 0.458 | 1 | inactive
NEK4 | 0.458 | 1 | inactive

Copied from the list.
Under “viability robust z-score, no drug”, CKMT2 shows 0.458
For “viability vs non-targeting pool, no drug”, TAOK1 reads 1
